No constants are given. Whether binding was seen depends on the method and setting. In cells and extracts the contact can be indirect.

This note sets out measurements from PMC8877947.

In this test the target is T1, barrier-to-autointegration factor-like protein (BAF-L) (mouse (endogenous in testis)) (UniProt Q8BVR0).
T1 sequence: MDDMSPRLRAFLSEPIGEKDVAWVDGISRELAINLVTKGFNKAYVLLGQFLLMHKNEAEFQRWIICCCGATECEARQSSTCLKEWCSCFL
Put plainly: co-IP; testis lysate (50 mM Tris, 150 mM NaCl, 0.1-0.5% Tween 20, pH 7.5) precipitated with BAF-L antibody on protein A/G magnetic beads, 1 h at 4 °C; blots for histones H2A, H2B, H3, H4 and protamine 1.

On to “histone H2A (mouse (endogenous in testis))”, for which the binding result is listed as “no binding”. Take “histone H2B (mouse (endogenous in testis))”: the binding entry is listed as “no binding”.
